Test results as given in patent US20140288044A1, “COMPOSITIONS AND THERAPEUTIC USES OF IKK-RELATED KINASE EPSILON AND TANKBINDING KINASE 1 INHIBITORS” (Alzheimer's Institute of America, Inc., priority 2011, published 2014).
Some results were stated once for a whole list of compounds, not compound by compound.

Tested on: IKKε-mediated phosphorylation of IRF3
Test: ELISA for in-situ phosphorylation of IRF3 (phospho-Ser396) in HEK293T cells cotransfected with IRF3 and IKKε
Format: cell-based
Settings: 20 hours
Method: HEK293T cells were cotransfected in a 10-cm dish with IRF3 and IKKε expression plasmids using Lipofectamine 2000 (Invitrogen, Carlsbad, Calif.). The following day, cells were replated at 20,000 per well in 96-well plates and treated with test compounds (compounds according to Formulae I and/or II) for 20 hours. Cell lysates were prepared and analyzed using an ELISA for phospho-Ser396 (anti-IRF3 capture antibody, Santa Cruz Biotechnology, Inc., Santa Cruz, Calif.; anti-p-Ser396 IRF3 detection antibody, Cell Signaling, Danvers, Mass.). pIRF3 levels in compound treated cells were normalized to DMSO treated cells (no compound). Cell viability was assayed in a parallel set of plates to monitor cytotoxic effects of the test compounds (CellTiter-Glo, Promega, Inc., Madison, Wis.). TBK1 activity was tested by Western blotting using a phospho-specific IRF7 antibody. Similar to above, HEK293T cells were transfected with IRF7 and TBK1 expression plasmids. Cells were seeded in 12-well plates at 150,000 per well and treated overnight with test compounds. Protein lysates were prepared and processed for Western blotting followed by detection using a phosphor-Ser477/Ser479 IRF7 antibody (BD Biosciences, San Jose, Calif.)

Question: With N#Cc1cc(-c2ccnc(Nc3ccc(C(=O)N4CCN(CCO)CC4)s3)n2)ccc1OC1CCOCC1 [Example Compound 95, 5-{2-[(5-{[4-(2-Hydroxyethyl)piperazin-1-yl]carbonyl}thiophen-2-yl)amino]pyrimidin-4-yl}-2-(tetrahydro-2H-pyran-4-yloxy)benzonitrile] as the compound, how does the IC50 read?
Answer: The IC50 was less than 100 nM.
